Screening data

Source: PubChem BioAssay AID912 (NCATS, 2007).

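A cell-based FRET test of anthrax lethal toxin entry, tracked through the 460 nm emission signal; the cell line is not named here. Each compound was tested as a concentration series from about 0.0005 to 40 µM. The number is the fitted AC50 of the 460 nm signal alone; lower values mean a more potent effect. A falling signal goes with compounds filed as inhibitors or cytotoxic, a rising one with activators or fluorescent compounds (inferred from the filed classes).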

Values are in µM. Common to all entries: measured here: 460 nm channel. This is a side read-out of the assay, for part of the compounds, not drawn at random. Potencies fitted to partial, single-point or poorly fitting curves are rough. The first word of each remark tells which way the curve ran; it can be opposite to the aim of the assay.

With CCc1ccccc1-n1c(SCC(=O)N2CCCC2)nnc1-c1ccccn1 the assay gave AC50 12.59 µM (rising, single point). Result for COc1cc(S(=O)(=O)N2CCN=C2c2ccccc2)ccc1F was AC50 5.012 µM (falling, partial curve). Clc1ccc2c(c1)C(N1CCNCC1)=Nc1ccccc1O2 read AC50 12.59 µM (rising, single point). For O=C(O)CNC(=O)c1ccccc1O the result was AC50 3.162 µM (falling, single point).

Result for O=C(c1cccc(-c2nnc(-c3ccccc3)o2)c1)N1CCCCC1 was AC50 3.162 µM (rising, single point). Cc1cc(=O)oc2c(CN3CCOCC3)c(O)ccc12 read AC50 7.943 µM (rising, partial curve). CN(C)c1ncc2nc(-c3ccc(F)cc3)c(=O)n(-c3ccccc3)c2n1 gave AC50 0.0631 µM (rising, partial curve). With CC1(C)[C@@H](O)CC[C@@]2(C)[C@H]1CC[C@]1(C)[C@H]2C(=O)C=C2[C@@H]3C[C@@](C)(C(=O)O)CC[C@]3(C)CC[C@@]21C the assay gave AC50 12.59 µM (falling, partial curve).

C=CC[C@@H]1C=C[C@H](O/N=C(\C)CCN2CCCc3nc(C)c(C)cc32)[C@H](CO)O1 read AC50 5.012 µM (rising, single point). For O=C(/C=C\C=C/c1ccc2c(c1)OCO2)N1CCCCC1 the result was AC50 0.07943 µM (falling, full curve, poor fit). With COc1ccccc1CNC(=O)CN1C(=O)C(C)N(c2ccc(C)cc2)C1=O (configuration not stated) the assay gave AC50 5.012 µM (rising, single point). Cc1cccc(C)c1NC(=O)C(c1cccs1)N(Cc1ccco1)C(=O)Cn1nnc2ccccc21 (configuration not stated) gave AC50 31.62 µM (rising, single point).

For CC(C)CN1CC[C@@]2(CCCN(C(=O)c3cccc(F)c3)C2)C1 the result was AC50 12.59 µM (rising, single point). Cc1cc(C)nc(Nc2n[nH]c(COc3ccccc3)n2)n1 read AC50 3.981 µM (rising, single point). With CC1=C(C(=O)OC(C)C)C(c2cccs2)n2ncnc2N1 (configuration not stated) the assay gave AC50 6.31 µM (rising, partial curve). For O=S(=O)(c1ccc2ccccc2c1)n1cnc2ccccc21 the result was AC50 5.012 µM (rising, single point).

For O=C(Nc1nc2n(n1)C(c1ccccc1)CC(c1ccc(Cl)cc1)N2)c1ccco1 (configuration not stated) the result was AC50 3.162 µM (rising, partial curve). For COCCn1c(=O)c(CCc2ccccc2)nc2cnc(Nc3cccc(OC)c3)nc21 the result was AC50 10 µM (rising, partial curve). For O=C1C2=C(Nc3ccccc3SC2c2ccco2)c2ccccc21 (configuration not stated) the result was AC50 10 µM (falling, partial curve). CN(C)CCCN1C(=O)c2oc3ccccc3c(=O)c2C1c1cccs1 (configuration not stated) gave AC50 3.981 µM (rising, single point).

O=C1c2ccccc2C(=O)C12Cc1ccccc1N1CCN(c3ccccc3)CC12 (configuration not stated) read AC50 0.631 µM (rising, full curve, poor fit). CCOc1ccccc1NC(=O)c1cc(CC(C)C)oc1C gave AC50 10 µM (falling, partial curve). Result for CNC(=O)ON(C(=O)NC)C1N(C)C(=S)SC1(C)C (configuration not stated) was AC50 0.3981 µM (falling, full curve, poor fit). With COC(=O)c1ccc(CN(c2ccc(C)cc2)S(=O)(=O)c2ccc3c(c2)OCCO3)o1 the assay gave AC50 31.62 µM (falling, single point).

For CN1CCC(=C2c3ccccc3C=Cc3ccccc32)CC1 the result was AC50 15.85 µM (falling, partial curve, poor fit).

Repeated from the top, 2 entries:

{"smiles": "CCc1ccccc1-n1c(SCC(=O)N2CCCC2)nnc1-c1ccccn1", "AC50 (µM)": "12.59", "remark": "rising, single point"}
{"smiles": "COc1cc(S(=O)(=O)N2CCN=C2c2ccccc2)ccc1F", "AC50 (µM)": "5.012", "remark": "falling, partial curve"}